Reference: the supplement of paper PMC4604168 (melanoma cell lines)
The list shows a part of the results. Repeats are few or missing, and single values can be far off.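 The apoptosis fraction was the count of cleaved-PARP antibody-stained nuclei relative to all DNA-stained nuclei, imaged in 1,536-well plates. Screening doses were set so most cells survived, and baseline and induced cleaved-PARP levels vary greatly across cell lines.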

Legend:
Experiment in all cases: cleaved PARP positive nuclei fraction relative to DMSO control; melanoma cells; higher = more apoptosis
Conditions in all cases: library dose: low library concentration; 72 h
501Mel = tested on: 501Mel
A101D = tested on: A101D
A2058 = tested on: A2058
A375 = tested on: A375
C32 = tested on: C32
CBRC013 = tested on: CBRC013 (line from a melanoma biopsy)
CBRC014 = tested on: CBRC014 (line from a melanoma biopsy)
CBRC016 = tested on: CBRC016 (line from a melanoma biopsy)
CBRC017 = tested on: CBRC017 (line from a melanoma biopsy)

| SMILES | cleaved PARP positive nuclei fraction (501Mel) [%] | cleaved PARP positive nuclei fraction (A101D) [%] | cleaved PARP positive nuclei fraction (A2058) [%] | cleaved PARP positive nuclei fraction (A375) [%] | cleaved PARP positive nuclei fraction (C32) [%] | cleaved PARP positive nuclei fraction (CBRC013) [%] | cleaved PARP positive nuclei fraction (CBRC014) [%] | cleaved PARP positive nuclei fraction (CBRC016) [%] | cleaved PARP positive nuclei fraction (CBRC017) [%] |
| --- | --- | --- | --- | --- | --- | --- | --- | --- | --- |
| Oc1cc(-c2nc(-c3ccccc3)[nH]c2-c2ccncc2)ccc1Cl + O=C(O)C(=O)Nc1sc2c(c1C(=O)O)CCNC2 [TCS401] (first compound 0.2 µM, partner dose 1.66667 µM) | 185 | 44.1 | 53.7 | 328 | 37.2 | 74.6 | 79.4 | 104 | 79.2 |
| CN(C)S(=O)(=O)c1ccc2c(c1)/C(=C/c1cc3c([nH]1)CCCC3)C(=O)N2 + O=C(O)C(=O)Nc1sc2c(c1C(=O)O)CCNC2 [TCS401] (first compound 0.4 µM, partner dose 1.66667 µM) | 98.5 | 125 | 64.7 | 47.2 | 208 | 212 | 90.5 | 57.3 | 71.8 |
| O=C(O)C(=O)Nc1sc2c(c1C(=O)O)CCNC2 + Oc1nc(-c2ccc(C(F)(F)F)cc2)nc2c1CSCC2 [XAV939] (first compound 1.66667 µM, partner dose 2 µM) | 140 | 39.1 | 170 | 149 | 226 | 34.2 | 76.4 | 59.5 | 66.4 |
| COc1ccc(-c2ccc3c(N4CCOCC4)nc(N4C[C@@H](C)O[C@@H](C)C4)nc3n2)cc1CO + CCCCCCCCCCCC1=C(O)C(=O)C=C(O)C1=O [Embelin] (first compound 0.02 µM, partner dose 1.2 µM) | 152 | 74.1 | 35.1 | 23.6 | 224 | 152 | 220 | 46.3 | 76.7 |
| N#Cc1c(O)c2c(-c3ccc(-c4ccccc4O)cc3)csc2[nH]c1=O + Oc1cc(-c2nc(-c3ccccc3)[nH]c2-c2ccncc2)ccc1Cl [L779450] (first compound 2 µM, partner dose 0.2 µM) | 42.3 | 124 | 110 | 15.9 | 70 | 125 | 93.8 | 83 | 89.9 |
| CCc1ccc(CCOc2ccc(CC3SC(=O)NC3=O)cc2)nc1 (configuration not stated) [pioglitazone] + COc1cc(N2CCC(N3CCN(C)CC3)CC2)ccc1Nc1ncc(Cl)c(Nc2ccccc2S(=O)(=O)C(C)C)n1 [NVP-TAE684] (first compound 2 µM, partner dose 0.08 µM) | 44.8 | 117 | 119 | 185 | 138 | 290 | 98.6 | 73.4 | 89.4 |
| CN(NC(=O)CC(=O)NN(C)C(=S)c1ccccc1)C(=S)c1ccccc1 + Oc1nc(-c2ccc(C(F)(F)F)cc2)nc2c1CSCC2 [XAV939] (first compound 0.006 µM, partner dose 2 µM) | 116 | 84.4 | 49.1 | 1120 | 92.9 | 94.2 | 456 | 122 | 106 |
| N#Cc1c(O)c2c(-c3ccc(-c4ccccc4O)cc3)csc2[nH]c1=O + COc1cc(N2CCC(N3CCN(C)CC3)CC2)ccc1Nc1ncc(Cl)c(Nc2ccccc2S(=O)(=O)C(C)C)n1 [NVP-TAE684] (first compound 2 µM, partner dose 0.08 µM) | 100 | 36.3 | 161 | 217 | 52 | 42 | 89.9 | 36.9 | 78.1 |
| COc1ccc(-c2ccc3c(N4CCOCC4)nc(N4C[C@@H](C)O[C@@H](C)C4)nc3n2)cc1CO + CC(C)CCN1c2nc(Nc3cc(F)c(O)c(F)c3)ncc2N(C)C(=O)C1C [BID1870] (first compound 0.02 µM, partner dose 0.2 µM) | 74.9 | 270 | 61.4 | 328 | 120 | 96 | 110 | 62.1 | 79.3 |
| O=C(O)C(=O)Nc1sc2c(c1C(=O)O)CCNC2 + c1cc(-c2cnn3cc(-c4ccc(OCCN5CCCCC5)cc4)cnc23)ccn1 [Dorsomorphin] (first compound 1.66667 µM, partner dose 0.4 µM) | 80.3 | 122 | 144 | 72.4 | 64.1 | 258 | 89.2 | 73.8 | 136 |
| CCN(CC)CCCCNc1ncc2cc(-c3cc(OC)cc(OC)c3)c(NC(=O)NC(C)(C)C)nc2n1 + c1cc(-c2cnn3cc(-c4ccc(OCCN5CCCCC5)cc4)cnc23)ccn1 [Dorsomorphin] (first compound 0.1 µM, partner dose 0.4 µM) | 81.8 | 178 | 55.8 | 13.2 | 71 | 190 | 161 | 36.9 | 127 |
| N#Cc1c(O)c2c(-c3ccc(-c4ccccc4O)cc3)csc2[nH]c1=O + COc1cc2ncnc(Nc3ccc(Oc4ccccc4)cc3)c2cc1OC [SrcI1] (first compound 2 µM, partner dose 2 µM) | 189 | 92.9 | 39.2 | 40.5 | 87.1 | 605 | 98.9 | 91.3 | 73.7 |
| O=C(O)c1ccc(-c2c[nH]c3ncc(-c4ccccc4)cc23)cc1C1CCCC1 + COC(=O)c1sccc1S(=O)(=O)Nc1ccc(Nc2ccccc2)cc1OC [GSK0660] (first compound 0.16 µM, partner dose 1 µM) | 74.7 | 87.4 | 45.5 | 148 | 38.4 | 41.9 | 126 | 371 | 107 |

Some of the entries above, set out differently.
SMILES,cleaved PARP positive nuclei fraction (501Mel) [%],cleaved PARP positive nuclei fraction (A101D) [%],cleaved PARP positive nuclei fraction (A2058) [%],cleaved PARP positive nuclei fraction (A375) [%],cleaved PARP positive nuclei fraction (C32) [%],cleaved PARP positive nuclei fraction (CBRC013) [%],cleaved PARP positive nuclei fraction (CBRC014) [%],cleaved PARP positive nuclei fraction (CBRC016) [%],cleaved PARP positive nuclei fraction (CBRC017) [%]
"CCN(CC)CCCCNc1ncc2cc(-c3cc(OC)cc(OC)c3)c(NC(=O)NC(C)(C)C)nc2n1 + c1cc(-c2cnn3cc(-c4ccc(OCCN5CCCCC5)cc4)cnc23)ccn1 [Dorsomorphin] (first compound 0.1 µM, partner dose 0.4 µM)",81.8,178,55.8,13.2,71,190,161,36.9,127
"N#Cc1c(O)c2c(-c3ccc(-c4ccccc4O)cc3)csc2[nH]c1=O + COc1cc2ncnc(Nc3ccc(Oc4ccccc4)cc3)c2cc1OC [SrcI1] (first compound 2 µM, partner dose 2 µM)",189,92.9,39.2,40.5,87.1,605,98.9,91.3,73.7
